# From the supplement of paper PMC8728848
# The other results are listed elsewhere or left out.
# Experiments:
# Test in all cases: glycan array binding signal (z-score within array); higher = stronger binding
# Conditions in all cases: glycan notation: IUPAC condensed, linker removed
# [1] = molecular target: Neu5Ac(a2-3)Gal(b1-4)GlcNAc(b1-6)GalNAc
# Outline: (§1)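 The binding signal is a Z-score computed within each array and averaged over linkers. Arrays of the same protein sequence at different concentrations or buffers were also averaged together. Data originate from 3228 arrays in the Consortium for Functional Glycomics database, kept only where the protein sequence was available.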
# [2] = molecular target: Neu5Ac(a2-3)Gal(b1-4)GlcNAc(b1-6)[Gal(b1-3)]GalNAc
# Outline: as §1
# [3] = molecular target: Neu5Ac(a2-3)Gal(b1-4)GlcNAc(b1-6)[Neu5Ac(a2-3)Gal(b1-3)]GalNAc
# Outline: as §1
# [4] = molecular target: Neu5Ac(a2-3)Gal(b1-4)GlcNAc6S
# Outline: as §1
# [5] = molecular target: Neu5Ac(a2-3)Gal(b1-4)[Fuc(a1-3)]GlcNAc
# Outline: as §1
# [6] = molecular target: Neu5Ac(a2-3)Gal(b1-4)[Fuc(a1-3)]GlcNAc(b1-2)Man
# Outline: as §1
# [7] = molecular target: Neu5Ac(a2-3)Gal(b1-4)[Fuc(a1-3)]GlcNAc(b1-3)Gal
# Outline: as §1
# [8] = molecular target: Neu5Ac(a2-3)Gal(b1-4)[Fuc(a1-3)]GlcNAc(b1-3)Gal(b1-4)GlcNAc
# Outline: as §1
# [9] = molecular target: Neu5Ac(a2-3)Gal(b1-4)[Fuc(a1-3)]GlcNAc(b1-3)Gal(b1-4)[Fuc(a1-3)]GlcNAc(b1-3)Gal(b1-4)[Fuc(a1-3)]GlcNAc
# Outline: as §1
# [10] = molecular target: Neu5Ac(a2-3)Gal(b1-4)[Fuc(a1-3)]GlcNAc(b1-3)GalNAc
# Outline: as §1
# [11] = molecular target: Neu5Ac(a2-3)Gal(b1-4)[Fuc(a1-3)]GlcNAc(b1-6)[Gal(b1-3)]GalNAc
# Outline: as §1
# [12] = molecular target: Neu5Ac(a2-3)Gal(b1-4)[Fuc(a1-3)]GlcNAc(b1-6)[Neu5Ac(a2-3)Gal(b1-3)]GalNAc
# Outline: as §1
# [13] = molecular target: Neu5Ac(a2-3)Gal(b1-4)[Fuc(a1-3)]GlcNAc6S
# Outline: as §1
# [14] = molecular target: Neu5Ac(a2-3)Gal6S(b1-4)GlcNAc
# Outline: as §1
# [15] = molecular target: Neu5Ac(a2-3)Gal6S(b1-4)[Fuc(a1-3)]GlcNAc
# Outline: as §1
# [16] = molecular target: Neu5Ac(a2-3)GalNAc
# Outline: as §1
# [17] = molecular target: Neu5Ac(a2-3)GalNAc(b1-4)GlcNAc
# Outline: as §1
# [18] = molecular target: Neu5Ac(a2-3)[GalNAc(b1-4)]Gal(b1-4)Glc
# Outline: as §1
# [19] = molecular target: Neu5Ac(a2-3)[GalNAc(b1-4)]Gal(b1-4)GlcNAc
# Outline: as §1
# [20] = molecular target: Neu5Ac(a2-3)[GalNAc(b1-4)]Gal(b1-4)GlcNAc(b1-3)GalNAc
# Outline: as §1
# [21] = molecular target: Neu5Ac(a2-3)[Neu5Ac(a2-6)]GalNAc
# Outline: as §1
# [22] = molecular target: Neu5Ac(a2-6)Gal
# Outline: as §1
# [23] = molecular target: Neu5Ac(a2-6)Gal(b1-3)GlcNAc(b1-3)[Gal(b1-4)GlcNAc(b1-6)]Gal(b1-4)Glc
# Outline: as §1
# [24] = molecular target: Neu5Ac(a2-6)Gal(b1-4)Glc
# Outline: as §1
# [25] = molecular target: Neu5Ac(a2-6)Gal(b1-4)GlcNAc
# Outline: as §1
# [26] = molecular target: Neu5Ac(a2-6)Gal(b1-4)GlcNAc(b1-2)Man
# Outline: as §1
# [27] = molecular target: Neu5Ac(a2-6)Gal(b1-4)GlcNAc(b1-2)Man(a1-3)Man(b1-4)GlcNAc(b1-4)GlcNAc
# Outline: as §1
# [28] = molecular target: Neu5Ac(a2-6)Gal(b1-4)GlcNAc(b1-2)Man(a1-3)[Gal(b1-4)GlcNAc(b1-2)Man(a1-6)]Man(b1-4)GlcNAc(b1-4)GlcNAc
# Outline: as §1
# [29] = molecular target: Neu5Ac(a2-6)Gal(b1-4)GlcNAc(b1-2)Man(a1-3)[GlcNAc(b1-2)Man(a1-6)]Man(b1-4)GlcNAc(b1-4)GlcNAc
# Outline: as §1
# [30] = molecular target: Neu5Ac(a2-6)Gal(b1-4)GlcNAc(b1-2)Man(a1-3)[GlcNAc(b1-4)][Neu5Ac(a2-6)Gal(b1-4)GlcNAc(b1-2)Man(a1-6)]Man(b1-4)GlcNAc(b1-4)GlcNAc
# Outline: as §1
# [31] = molecular target: Neu5Ac(a2-6)Gal(b1-4)GlcNAc(b1-2)Man(a1-3)[Man(a1-6)]Man(b1-4)GlcNAc(b1-4)GlcNAc
# Outline: as §1
binder,measurement,setting,value
Aap brpt (Staphylococcus epidermidis) (protein) VDGDPITSTEEIPFDKKREFDPNLAPGTEKVVQKGEPGTKTITTPTTKNPLTGEKVGEGEPTEKITKQPVDEIVHYGGEEIKTGHKDEFDPNAPKGSQTTQPGKPGVKNPDTGEVVTPPVDDVTKYGPVDGDPITSTEEIPFDKKREFDPNLAPGTEKVVQKGEPGTKTITTPTTKNPLTGEKVGEGEPTEKITKQPVDEIVHYGGEEIKPGHKDEFDPNAPKGSQEDVPGKPGVKNPDTGEVVTPPVDDVTKYGPVDGDSITSTEEIPFDKKREFDPNLAPGTEKVVQKGEPGTKTITTPTTKNPLTGEKVGEGEPTEKITKQPVDEIVHYGGEQIPQGHKDEFDPNAPVDSKTEVPGKPGVKNPDTGEVVTPPVDDVTKYGPVDGDSITSTEEIPFDKKREFDPNLAPGTEKVVQKGEPGTKTITTPTTKNPLTGEKVGEGKSTEKVTKQPVDEIVEYGPTK,glycan array binding signal (z-score),[1],-2.21
same,glycan array binding signal (z-score),[2],-0.96
same,glycan array binding signal (z-score),[3],-0.233
same,glycan array binding signal (z-score),[4],0.481
same,glycan array binding signal (z-score),[5],0.007
same,glycan array binding signal (z-score),[6],0.096
same,glycan array binding signal (z-score),[7],0.757
same,glycan array binding signal (z-score),[8],1.14
same,glycan array binding signal (z-score),[9],-1.32
same,glycan array binding signal (z-score),[10],-0.869
same,glycan array binding signal (z-score),[11],-0.839
same,glycan array binding signal (z-score),[12],-1.23
same,glycan array binding signal (z-score),[13],-1.72
same,glycan array binding signal (z-score),[14],-0.68
same,glycan array binding signal (z-score),[15],-2.01
same,glycan array binding signal (z-score),[16],0.44
same,glycan array binding signal (z-score),[17],0.259
same,glycan array binding signal (z-score),[18],-1.15
same,glycan array binding signal (z-score),[19],0.696
same,glycan array binding signal (z-score),[20],-0.062
same,glycan array binding signal (z-score),[21],-0.31
same,glycan array binding signal (z-score),[22],0.426
same,glycan array binding signal (z-score),[23],-0.86
same,glycan array binding signal (z-score),[24],-0.91
same,glycan array binding signal (z-score),[25],-0.403
same,glycan array binding signal (z-score),[26],0.919
same,glycan array binding signal (z-score),[27],0.418
same,glycan array binding signal (z-score),[28],0.674
same,glycan array binding signal (z-score),[29],-0.817
same,glycan array binding signal (z-score),[30],0.067
same,glycan array binding signal (z-score),[31],-0.756

# A different layout for some results above:
binder | measurement | setting | value
Aap brpt (Staphylococcus epidermidis) (protein) VDGDPITSTEEIPFDKKREFDPNLAPGTEKVVQKGEPGTKTITTPTTKNPLTGEKVGEGEPTEKITKQPVDEIVHYGGEEIKTGHKDEFDPNAPKGSQTTQPGKPGVKNPDTGEVVTPPVDDVTKYGPVDGDPITSTEEIPFDKKREFDPNLAPGTEKVVQKGEPGTKTITTPTTKNPLTGEKVGEGEPTEKITKQPVDEIVHYGGEEIKPGHKDEFDPNAPKGSQEDVPGKPGVKNPDTGEVVTPPVDDVTKYGPVDGDSITSTEEIPFDKKREFDPNLAPGTEKVVQKGEPGTKTITTPTTKNPLTGEKVGEGEPTEKITKQPVDEIVHYGGEQIPQGHKDEFDPNAPVDSKTEVPGKPGVKNPDTGEVVTPPVDDVTKYGPVDGDSITSTEEIPFDKKREFDPNLAPGTEKVVQKGEPGTKTITTPTTKNPLTGEKVGEGKSTEKVTKQPVDEIVEYGPTK | glycan array binding signal (z-score) | [2] | -0.96
same | glycan array binding signal (z-score) | [3] | -0.233
